{"source": "patent US6692937B2", "about": "“DNA encoding small and intermediate conductance calcium-activated potassium channels” (ICAgen, Incorporated, priority 1997, dated 2004)", "target": "T1, rSK2 (Rattus norvegicus, UniProt P70604)", "T1 construct": "expressed in transfected cells; host or cells: Xenopus oocytes injected with in vitro transcribed mRNA", "assay": "Macroscopic currents in inside-out macropatches excised from Xenopus oocytes expressing rSK2", "type": "cell-based", "conditions": "normalized current versus Ca2+ concentration, n=4; read-out: K0.5 (concentration for half-maximal activation), SK2", "from_the_text": "Electrode resistance was typically 2-5 MΩ. Membrane patches were voltage clamped using an Axopatch 200A amplifier (Axon Instruments).\nTo compare hIK1 and SK2, normalized current was plotted as a function of Ca^2+ concentration, and the data points fitted with the Hill equation.", "note": "At least one compound was matched to its structure with a doubt left.", "data": [{"smiles": "[Ca+2]", "note": "[calcium]", "values": [{"measurement": "EC50", "value": "310 ± 50", "unit": "nM"}]}]}
